Values from PubChem BioAssay AID743121 (NCATS, 2013).
Screen: 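Partners whose loss is lethal together with topoisomerase I blockade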 (primary screen). System: MDA-MB-231 cells, a human breast cancer line. Knock-down reagent: single siRNA against human genes, 20 nM siRNA (0.8 pmol per well). Timing: 120 h (drug added 48 h after transfection, read 72 h later). Treatment: camptothecin 20 nM (about EC30) for 72 h; vehicle 0.1% DMSO in parallel plates. Measurement: 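Cell viability by ATP luminescence (CellTiter-Glo) as % of non-targeting siRNA wells, and the log2 ratio of viability without drug over viability with camptothecin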. Direction: log2 vehicle/camptothecin viability: higher = stronger sensitisation to camptothecin. Active means: 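Active genes have an RSA gene-level p-value below 0.001, computed from the ratios of their separate siRNAs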.
This is one part, drawn at random, of about 26,000 reagents. 167 of them (0.63%) were called active. 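Calls are per gene from RSA p-values that are not deposited; an individual active-marked siRNA can sensitise only weakly.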 Entries without a mark were called inactive. Reagents against one gene are numbered here. Further read-outs or replicates are left out here.

BCAM #1 scored log2 vehicle/camptothecin viability -0.272.
Silencing of BCAM #2 came out at: log2 vehicle/camptothecin viability -0.345.
With knock-down of BCAM #3, the screen gave log2 vehicle/camptothecin viability -0.0524.
Depletion of TRIM60 #1 came out at: log2 vehicle/camptothecin viability -1.6.
Against TRIM60 #2, the entry reads log2 vehicle/camptothecin viability -0.201.
After knock-down of TRIM60 #3 the results were log2 vehicle/camptothecin viability -0.233.
With knock-down of TRIM60 #4, the screen gave log2 vehicle/camptothecin viability 0.572.
Against WHR1 #1, the values are log2 vehicle/camptothecin viability -0.53.
Silencing of WHR1 #2 gave: log2 vehicle/camptothecin viability -0.372.
For WHR1 #3, the values are log2 vehicle/camptothecin viability -0.317.
Depletion of WHR1 #4 gave: log2 vehicle/camptothecin viability 0.455.
After knock-down of NPFF #1, the record shows log2 vehicle/camptothecin viability 0.0519.
Against NPFF #2 the deposit lists log2 vehicle/camptothecin viability -0.404.
Silencing of NPFF #3 resulted in: log2 vehicle/camptothecin viability 0.195.
For NPFF #4, the values are log2 vehicle/camptothecin viability 0.0337.
SLC9A4 #1 scored log2 vehicle/camptothecin viability 0.588.
SLC9A4 #2 showed log2 vehicle/camptothecin viability -0.145.
Knock-down of SLC9A4 #3 gave: log2 vehicle/camptothecin viability -0.12.
SLC9A4 #4 showed log2 vehicle/camptothecin viability 0.0477.
Against GEMIN4 #1, the values are log2 vehicle/camptothecin viability 0.241.
With knock-down of GEMIN4 #2, the screen gave log2 vehicle/camptothecin viability 0.256.
With knock-down of GEMIN4 #3, the record shows log2 vehicle/camptothecin viability -0.285.
Silencing of GEMIN4 #4 came out at: log2 vehicle/camptothecin viability -0.0664.
NR3C2 #1 gave log2 vehicle/camptothecin viability -0.291.
NR3C2 #2 gave log2 vehicle/camptothecin viability -0.348.
NR3C2 #3 gave log2 vehicle/camptothecin viability 0.024.
Knock-down of PSMA7 #1 came out at: log2 vehicle/camptothecin viability -0.379.
PSMA7 #2 gave log2 vehicle/camptothecin viability -0.19.
Against PSMA7 #3, the values are log2 vehicle/camptothecin viability -0.219.
Against PSMA7 #4, the entry reads log2 vehicle/camptothecin viability -0.644.
After knock-down of MALRD1 #1, the screen gave log2 vehicle/camptothecin viability -0.325.
MALRD1 #2 showed log2 vehicle/camptothecin viability -0.259.
After knock-down of MALRD1 #3, the screen gave log2 vehicle/camptothecin viability -0.0833.
Depletion of BDKRB1 #1 came out at: log2 vehicle/camptothecin viability -0.22.
After knock-down of BDKRB1 #2, the record shows log2 vehicle/camptothecin viability 0.185.
Against BDKRB1 #3, the values are log2 vehicle/camptothecin viability -0.444.
BDKRB1 #4 showed log2 vehicle/camptothecin viability 0.77.

Records above whose target name starts with N or n (7):
NPFF #1 → log2 vehicle/camptothecin viability = 0.0519
NPFF #2 → log2 vehicle/camptothecin viability = -0.404
NPFF #3 → log2 vehicle/camptothecin viability = 0.195
NPFF #4 → log2 vehicle/camptothecin viability = 0.0337
NR3C2 #1 → log2 vehicle/camptothecin viability = -0.291
NR3C2 #2 → log2 vehicle/camptothecin viability = -0.348
NR3C2 #3 → log2 vehicle/camptothecin viability = 0.024
